## Results of single-concentration screens

Data taken from ChEMBL document CHEMBL3988442, “University of Dundee, Small-Polar-MMV Screening Library” (2021).

Results are given as percent effect. The controls that fix the scale are not given in the record; negative values are as filed. The compounds are a random part of those screened. Two or more numbers in one place are separate tests of the same structure; such repeats can differ widely.

A: 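Whole-cell growth test on Mycobacterium tuberculosis, read after 3 days in glucose-containing 7H9 medium; the read-out is not stated. Compounds at 50 µM. The record gives no direction; compounds that gave an IC50 in retests scored well above the rest, so higher reads as more growth inhibition. About 69,000 compounds were tested under these conditions; 1.1% (about 760) showed 50% or more at least once.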
B: 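Growth of Mycobacterium tuberculosis over 4 days (cholesterol / DPPC medium with tyloxapol); the read-out is not stated. Compounds at 50 µM. Higher reads as more growth inhibition (inferred: compounds with an IC50 in retests scored well above the rest). Size under these conditions: about 69,000 compounds, about 370 of them at 50% or above in at least one test.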

{"structure": "Cc1nc(C)n(C2CCCN(C(=O)c3sccc3C)C2)n1", "stereo": "configuration not stated", "A": 4.192, "B": -14.69}
{"structure": "COC1CCN(C(=O)CCc2c(C)nc3ccnn3c2C)CC1", "A": 6.89, "B": -6.534}
{"structure": "Cc1cc(N(C)C)nc(C2COCCN2Cc2csc(C)n2)n1", "stereo": "configuration not stated", "A": -42.93, "B": "-10.68 & -2.002"}
{"structure": "Cc1[nH]ccc1C(=O)NCC1CC(=O)N(CCc2ccccc2)C1", "stereo": "configuration not stated", "A": -14.91, "B": -12.16}
{"structure": "CC(C)[C@@H]1CN(Cc2ccsc2)C[C@H]1NS(=O)(=O)N(C)C", "A": 6.554, "B": "-24.55 & -1.989"}
{"structure": "CNc1nc(C2CCN(C(=O)CC3CCCC3)C2)nc2c1CN(C)CC2", "stereo": "configuration not stated", "A": 7.157, "B": 5.97}
{"structure": "N#Cc1cccc(NC(=O)N(CC(F)F)C2CC2)c1", "A": -1.425, "B": "-4.913 & -2.557"}
{"structure": "COc1cccc(Cn2ncnc2CCC(C)N2CCN(C)CC2)c1", "stereo": "configuration not stated", "A": 5.861, "B": 4.927}
{"structure": "COc1nc(C)c(C(=O)N2CCc3[nH]nc(C4CCCC4)c3C2)s1", "A": 16.17, "B": 10.91}
{"structure": "[H][C@@]12C[C@H](C(=O)Nc3ccccc3)[C@@]([H])(CN(S(=O)(=O)N(C)C)C1)O2", "A": 10.53, "B": -18.59}
{"structure": "CCN(CC)CCn1cnc(-c2ccccc2)c1-c1ncc[nH]1", "A": "-4.87 & 95.17", "B": 2.252}
{"structure": "O=C(Nc1ccccc1)C1CN(Cc2ccco2)CC12CCOCC2.O=C(O)C(F)(F)F", "stereo": "configuration not stated", "A": "-4.391 & -0.1639", "B": -0.7792}
{"structure": "[H][C@@]12CCCC[C@]1(O)CCN(C(=O)c1cccc3c1ccn3C)C2", "A": 35.43, "B": 5.571}
{"structure": "COc1ccc2nnc(CCCC(=O)NCCc3ccccc3)n2n1", "A": 20.36, "B": 6.493}
{"structure": "CS(=O)(=O)N1CCOC2(CCCN(c3ncc(F)cn3)C2)C1", "stereo": "configuration not stated", "A": "1.135 & -3.405", "B": 1.778}
{"structure": "CC(C)C(=O)N1CCCC2(CCCN2Cc2cccnc2)C1", "stereo": "configuration not stated", "A": -14.2, "B": -20.14}
{"structure": "Cc1nc(-c2ccccc2)n(CC(=O)NC(C)(C)C)n1", "A": 11.16, "B": -25.16}
{"structure": "CN1CC(c2ccccc2)CC12CCN(C(=O)c1ccc(Cl)cn1)CC2", "stereo": "configuration not stated", "A": -10.73, "B": -39.57}
{"structure": "Cc1cccc(CNC(=O)CNc2cc(CO)ccc2Cl)c1", "A": "-27.46 & 5.561", "B": 3.111}
{"structure": "O=C(NCCc1ccncc1)c1ccc(N2CCOCC2)cc1", "A": -23.82, "B": 3.869}
{"structure": "O=C(c1ncncc1Cl)N1CCN(c2ccc(Cl)cc2)CC1", "A": -23.44, "B": -13.53}
{"structure": "Fc1ccc(OCc2nnc([C@H]3CCN(Cc4ccccn4)C3)o2)cc1", "A": "1.859 & -10.69", "B": -8.682}
{"structure": "CC(NC(=O)c1ccc2c(c1)COC2)c1cccc(N2CCOC2=O)c1", "stereo": "configuration not stated", "A": "1.155 & -8.469", "B": -10.33}
{"structure": "CN(Cc1nncn1C)c1nccc(N2CCC(O)CC2)n1", "A": "-3.707 & -1.569", "B": -8.223}
{"structure": "Cc1csc(CNC(=O)Nc2ccc3c(c2)OCO3)n1", "A": -18.12, "B": -9.249}
{"structure": "CCc1cc(N2CCC(NC3CCOCC3)CC2)nc(N(C)C)n1", "A": -27.22, "B": -13.92}
{"structure": "CC(C)c1noc(C(C)N2CCN(Cc3ccco3)CC2)n1", "stereo": "configuration not stated", "A": 1.101, "B": -0.604}
{"structure": "FC(F)(F)c1ccnc(N2CCC(c3nccn3CC3CC3)CC2)n1", "A": 49.82, "B": 55.96}
{"structure": "Cc1ccccc1COCCOCn1c(C)cc(=O)[nH]c1=O", "A": -15.46, "B": -8.506}
{"structure": "COC(=O)N1CCCN(Cn2nc(C)c(Br)c2C)CC1", "A": 0.8575, "B": -16.82}
{"structure": "[H][C@@]12CN(C(=O)Nc3ccccc3)C[C@]1([H])OCCN2C(=O)c1ccco1", "A": "19.04 & 4.595", "B": 7.927}
{"structure": "Cc1nn(C)c(Cl)c1C1CCCN1CC(=O)Nc1cccnc1", "stereo": "configuration not stated", "A": 22.36, "B": -16.36}
{"structure": "O=C(O)C(F)(F)F.[H][C@]12CCN(C(=O)c3ccoc3)[C@@]1([H])CC[C@H](COCCN1CCCC1)O2", "A": -8.859, "B": -11.47}
{"structure": "CCN(CC)S(=O)(=O)N(Cc1cccc(C)c1)Cc1ccccn1", "A": "-60.61 & 3.42", "B": -16.35}
{"structure": "Cn1cc(N2CC3(CCN(Cc4nccs4)CC3)OCC2=O)cn1.O=C(O)C(F)(F)F", "A": -10.45, "B": -0.1581}
{"structure": "Cc1cc(CCC(=O)O)nc(C2CCCN2c2ccnc(C)n2)n1", "stereo": "configuration not stated", "A": 7.394, "B": -1.858}
{"structure": "N[C@@H]1c2ccccc2C2(CCN(c3cnc4ccccc4n3)CC2)[C@H]1O", "A": 21.88, "B": 19.62}
{"structure": "CC(=O)N1CCN(C)CC(COCc2ccccc2)C1", "stereo": "configuration not stated", "A": 9.737, "B": -6.072}
{"structure": "Cc1ccc(NC(=O)NC(C)(C)c2noc(C)n2)cc1", "A": "18.78 & 1.693", "B": -9.531}
{"structure": "CC(C)Cc1nnc(NCc2ccsc2)o1", "A": 56.99, "B": 53.63}
{"structure": "CN(C(=O)Cc1ccccc1F)C1CCN(c2ccccn2)CC1", "A": -1.644, "B": 21.09}
{"structure": "CCOC1CCCN(C(=O)c2[nH]nc(C(C)C)c2Br)C1", "stereo": "configuration not stated", "A": -3.317, "B": 6.727}
{"structure": "CCCS(=O)(=O)N1CCN(c2ccc3nnc(CC)n3n2)CC1", "A": -12.75, "B": -14.83}
{"structure": "CCc1noc(CCCC(=O)Nc2cc(C(F)(F)F)c[nH]c2=O)n1", "A": -23.1, "B": -10.22}
{"structure": "Cc1ccccc1OCC(=O)NCC(c1ccc(N(C)C)cc1)N(C)C", "stereo": "configuration not stated", "A": -38.44, "B": -63.81}
{"structure": "Cc1nc(C)c(C(=O)N2CCCC2(C)C(=O)NC2CCCC2)s1", "stereo": "configuration not stated", "A": 11.81, "B": 4.016}
{"structure": "CC(Cn1cccn1)NC(=O)NCc1ccc(OC2CCCC2)nc1", "stereo": "configuration not stated", "A": -14.92, "B": -7.32}
{"structure": "COCCNC(=O)NCCc1cccc(OC)c1O", "A": "9.066 & -5.498", "B": -13.52}

6 of the entries, repeated:

Cc1nn(C)c(Cl)c1C1CCCN1CC(=O)Nc1cccnc1 (configuration not stated) read A: 22.36%; B: -16.36%.
Cc1[nH]ccc1C(=O)NCC1CC(=O)N(CCc2ccccc2)C1 (configuration not stated) read A: -14.91%; B: -12.16%.
COc1nc(C)c(C(=O)N2CCc3[nH]nc(C4CCCC4)c3C2)s1 read A: 16.17%; B: 10.91%.
CC(C)Cc1nnc(NCc2ccsc2)o1 read A: 56.99%; B: 53.63%.
N[C@@H]1c2ccccc2C2(CCN(c3cnc4ccccc4n3)CC2)[C@H]1O read A: 21.88%; B: 19.62%.
Cc1cc(N(C)C)nc(C2COCCN2Cc2csc(C)n2)n1 (configuration not stated) read A: -42.93%; B: -10.68% & -2.002%.